# Data reported in patent publication EP2323645B1, “USE OF LOW-DOSE LOCAL ANAESTHETIC OR DERIVATIVES THEREOF FOR THERAPY OF CHRONIC PAIN, ESPECIALLY MIGRAINE” (priority 2008, dated 2010).
# Test system: Menstruationsbeschwerden (Menorrhagien)
# Conditions: deep bilateral paravertebral injections L2, 0,1 Gew.-%
smiles,measurement,value
CCN(CC)CC(=O)Nc1c(C)cccc1C [Lidocain],Remission der Unterbauchschmerzen und -beschwerden,Spontane Remission
